Assay results as given in patent US20260176358A1.
Numbering of substitutions follows the chain as printed. Results are given in words; binding and its absence hold for the method and conditions named. Some binding calls cover weakened binding; strength is not graded here.

T1: rat CGRP (rat) (UniProt P01256)
T1 sequence (peptide, looked up): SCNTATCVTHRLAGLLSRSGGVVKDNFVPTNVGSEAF

B1: C1H1L1 (antibody, human IgG1, kappa, V domains shown)
VH: EVQLVQSGAEVKKPGSSVKVSCKASGYTFSTSWMNWVRQAPGQGLEWMGQIYPGDGYTNYSGKFRGRVTITADKSTSTAYMELSSLRSEDTAVYYCAGDYEALWGQGTTVTVSS
VL: DIVMTQTPLSLPVTPGEPASISCRSSQSLVHSNGNTYFHWYLQKPGQSPQLLIYEVSNRFSGVPDRFSGSGSGTDFTLKISRVEAEDVGVYYCSQSTHVPFTFGQGTKLEIKR
B2: C1H2L1 (antibody, human IgG1, kappa, V domains shown)
VH: B1 VH with S61Q
VL: B1 VL
B3: C1H3L1 (antibody, human IgG1, kappa, V domains shown)
VH: B1 VH with S61N, G62V
VL: B1 VL
B4: C1H1L2 (antibody, human IgG1, kappa, V domains shown)
VH: B1 VH
VL: B1 VL with N33S
B5: C1H3L2 (antibody, human IgG1, kappa, V domains shown)
VH: B1 VH with S61N, G62V
VL: B1 VL with N33S
B6: C1#-CHI (antibody, human IgG1, kappa, V domains shown)
VH: QVQLQQSGAELVRPGSSVKISCKASGYTFSTSWMNWVKQRPGQGLEWIGQIYPGDGYTNYNGKFRGKATLTADKSSSTAYMQLSSLTSEDSAVYFCAGDYEALWGQGTTLTVSS
VL: B1 VL with I2V, T14S, P15L, E17D, P18Q, K44R, Q50K, V88L, Y92F, Q105S
B7: C9H1L1 (antibody, human IgG1, kappa, V domains shown)
VH: EVQLVQSGAEVKKPGASVKVSCKASGYTFTDYYMNWVRQAPGQRLEWMGVINPYNVRTTYNRKFKGRVTITVDKSASTAYMELSSLRSEDTAVYYCASLLIRPHYFDYWGQGTTVTVSS
VL: DIQMTQSPSSLSASVGDRVTITCKASQNVGTNVAWYQQKPGKSPKALIYSASYRYSGVPSRFSGSGSGTDFTLTISSLQPEDVATYHCQQYNFYPYTFGQGTKLEIKR
B8: C9H2L1 (antibody, human IgG1, kappa, V domains shown)
VH: B7 VH with M48I, V68A, I70L
VL: B7 VL
B9: C9H3L1 (antibody, human IgG1, kappa, V domains shown)
VH: B7 VH with N55Q, V56G
VL: B7 VL
B10: C9H4L1 (antibody, human IgG1, kappa, V domains shown)
VH: B7 VH with M48I, N55Q, V56G, V68A, I70L
VL: B7 VL
B11: C9H5L1 (antibody, human IgG1, kappa, V domains shown)
VH: B7 VH with N55S, V56G
VL: B7 VL
B12: C9H6L1 (antibody, human IgG1, kappa, V domains shown)
VH: B7 VH with M48I, N55S, V56G, V68A, I70L
VL: B7 VL
B13: C9H7L1 (antibody, human IgG1, kappa, V domains shown)
VH: B7 VH with N55T, V56G
VL: B7 VL
B14: C9H8L1 (antibody, human IgG1, kappa, V domains shown)
VH: B7 VH with M48I, N55T, V56G, V68A, I70L
VL: B7 VL
B15: C9#-CHI (antibody, human IgG1, kappa, V domains shown)
VH: EVQLQQSGPVLVKPGASVKMSCKASGYTFTDYYMNWVKQSLGKSLEWIGVINPYNGRTTYNRKFKGKATLTVDKSSSTAYMELNSLTSEDSAVYYCASLLIRPHYFDYWGQGTTLTVSS
VL: DIVMTQSQKFMATSVGDRVSVTCKASQNVGTNVAWYQQKPGQSPKALIYSASYRYSVVPDRFTGSGSGTDFTLTIRNVQSEDLAEYHCQQYNFYPYTFGAGTKLELKR
B16: C21#-CHI (antibody, human IgG1, kappa, V domains shown)
VH: EVQLQQSGPELVKPGASVRISCKASGYTFTDYYMNWVRQSHRKSLEWIGDINPNNGGTNYNQKFKGKATLTVDKSSSTAYMELRSLTSEDSAVYYCASIIIVPNYFDYWGQGTTLTVSS
VL: DIVMTQSQKFMSTSVGDRVSVTCKASQNVDTNVAWFQQRPGQSPKALIYSASYRYSGVPDRFTGSGSGTDFTLTISNVQSEDLADYFCQQYNNYPYTFGGGTKLEIER
B17: C21H1L1 (antibody, human IgG1, kappa, V domains shown)
VH: EVQLVQSGAEVKKPGASVKVSCKASGYTFTDYYMNWVRQAPGQRLEWIGDINPNNVGTNYNQKFKGRATLTVDKSASTAYMELSSLRSEDTAVYYCASIIIVPNYFDYWGQGTTVTVSS
VL: B7 VL with G30D, Y36F, S43A, A46S, V83F, H87Y, F93N, Q100G, L104V
B18: C21H1L2 (antibody, human IgG1, kappa, V domains shown)
VH: B17 VH
VL: B7 VL with G30D, Y36F, V83F, H87Y, F93N, Q100G, L104V
B19: C21H2L1 (antibody, human IgG1, kappa, V domains shown)
VH: B17 VH with N55Q, V56G
VL: B7 VL with G30D, Y36F, S43A, A46S, V83F, H87Y, F93N, Q100G, L104V
B20: C21H2L2 (antibody, human IgG1, kappa, V domains shown)
VH: B17 VH with N55Q, V56G
VL: B7 VL with G30D, Y36F, V83F, H87Y, F93N, Q100G, L104V
B21: C21H3L1 (antibody, human IgG1, kappa, V domains shown)
VH: B17 VH with I48M, N55S, V56G, A68V, L70I
VL: B7 VL with G30D, Y36F, S43A, A46S, V83F, H87Y, F93N, Q100G, L104V
B22: C21H4L1 (antibody, human IgG1, kappa, V domains shown)
VH: B17 VH with N55T, V56G
VL: B7 VL with G30D, Y36F, S43A, A46S, V83F, H87Y, F93N, Q100G, L104V
B23: C21H4L2 (antibody, human IgG1, kappa, V domains shown)
VH: B17 VH with N55T, V56G
VL: B7 VL with G30D, Y36F, V83F, H87Y, F93N, Q100G, L104V
B24: C28H1L1 (antibody, human IgG1, kappa, V domains shown)
VH: B17 VH with I48M, G57V, N59T, A68V, L70I, N104D
VL: B7 VL with L11V, T31S, V83F, H87Y, F93S, Q100G, L104V
B25: C28H2L1 (antibody, human IgG1, kappa, V domains shown)
VH: B17 VH with G57V, N59T, N104D
VL: B7 VL with L11V, T31S, V83F, H87Y, F93S, Q100G, L104V
B26: C28H3L1 (antibody, human IgG1, kappa, V domains shown)
VH: B17 VH with I48M, N55Q, V56G, G57V, N59T, A68V, L70I, N104D
VL: B7 VL with L11V, T31S, V83F, H87Y, F93S, Q100G, L104V
B27: C28H4L1 (antibody, human IgG1, kappa, V domains shown)
VH: B17 VH with N55Q, V56G, G57V, N59T, N104D
VL: B7 VL with L11V, T31S, V83F, H87Y, F93S, Q100G, L104V
B28: C28H5L1 (antibody, human IgG1, kappa, V domains shown)
VH: B17 VH with N55S, V56G, G57V, N59T, N104D
VL: B7 VL with L11V, T31S, V83F, H87Y, F93S, Q100G, L104V
B29: C28H6L1 (antibody, human IgG1, kappa, V domains shown)
VH: B17 VH with I48M, N55T, V56G, G57V, N59T, A68V, L70I, N104D
VL: B7 VL with L11V, T31S, V83F, H87Y, F93S, Q100G, L104V
B30: C28H7L1 (antibody, human IgG1, kappa, V domains shown)
VH: B17 VH with N55T, V56G, G57V, N59T, N104D
VL: B7 VL with L11V, T31S, V83F, H87Y, F93S, Q100G, L104V
B31: C28#-CHI (antibody, human IgG1, kappa, V domains shown)
VH: B16 VH with R19K, K23E, R38K, R42G, G57V, N59T, N104D
VL: B16 VL with Q6H, D30G, T31S, F36Y, Q38E, R39K, D85E, N93S, E107K

Target: human CGRP (human) (UniProt P06881)
Assay: ELISA

binding, binds:
B1, B2, B3, B4, B5, B6, B7, B8, B9, B10, B11, B12, B13, B14, B15, B16, B17, B18, B19, B20, B21, B22, B23, B24, B25, B26, B27, B28, B29, B30, B31

Target: T1, rat CGRP (rat)
Assay: ELISA

binding, binds:
B1, B2, B3, B4, B5, B6, B7, B8, B9, B10, B11, B12, B13, B14, B15, B16, B17, B18, B19, B20, B21, B22, B23, B24, B25, B26, B27, B28, B29, B30, B31
